# Measurements reported in PMC12040169 (PLOS Biology, 2025).
# The other results are listed elsewhere or left out.
# Tested on: T1, CTL2-GFP (C. trachomatis L2/434/Bu, GFP-expressing)
# T1 construct: L2/434/Bu, GFP-expressing
# Design: species or system HeLa; Intracellular C. trachomatis growth in HeLa cells, bulk GFP fluorescence relative to DMSO
# Settings: bulk GFP, single well; 28.5 h, 10 µM; inhibitor
row,Structure (SMILES),% of control remaining [%]
1,O=C(O)COc1cccc(NC(=O)c2cc3ccccc3o2)c1 [CBK270071],123.029
2,O=C(CN1CCCCC1)Nc1ccc(S(=O)(=O)N2CCOCC2)cc1 [CBK265577],119.33
3,COc1cc(OC)cc(C(=O)OCc2ccc(F)cc2)c1 [CBK267996],130.013
4,O=C(OCc1ccc(S(=O)(=O)N2CCOCC2)cc1)c1cc(-c2ccccc2)nc2ccccc12 [CBK267411],118.624
5,CCc1nc2ccccc2n1CC(=O)N(CCC#N)Cc1cccnc1 [CBK304892],144.171
6,COc1ccc2[nH]c(-c3cncn3CCCC(C)(C)CO)cc2c1 [CBK281778],93.8146
7,CCc1nccn1CCC(=O)NC1CCN(Cc2ccncc2)CC1 [CBK306813],106.588
8,CC(=O)N1CCc2c([nH]c3c(C)cccc23)C12CCN(C/C=C\c1ccccc1)C2 (centres unmarked) [CBK040414],98.5855
9,O=C(CN1CCN(c2ccccn2)CC1)N1c2ccccc2Sc2ccc(C(F)(F)F)cc21 [CBK268835G],94.2405
10,c1ccc(COC(c2ccccc2)c2nc3ccccc3n2Cc2ccccc2)cc1 (centres unmarked) [CBK267311],84.6281
11,COc1ccc2c(c1)C1(CC(=O)N(C)C1=O)C(=O)N2C (centres unmarked) [CBK075146],95.1211
12,COc1ccc(-c2noc([C@@H]3Cc4[nH]cnc4CN3C(=O)CCC(=O)O)n2)cc1 [CBK288967],104.691
13,COCCNc1nc(-c2ccccc2OC)ccc1C(=O)N1CCN(C)CC1 [CBK105950],125.22
14,Cc1csc(-c2cn3ccnc3c(N3CCN(c4ccccn4)CC3)n2)c1 [CBK066530],124.995
15,O=S(=O)(Nc1cc(O[C@@H]2CCNC2)c2occc2c1)c1cc(F)c(Br)cc1F [CBK073943C],97.3065
16,Nc1nc(SCc2cccc([N+](=O)[O-])c2)n[nH]1 [CBK268688],97.1193
17,CC(NC(=O)C1CCN(CCOc2ccccc2)CC1)c1ccccc1 (centres unmarked) [CBK148610],106.588
18,CN(CC1CCCN(C(=O)Nc2cccc(Cl)c2)C1)C(=O)OC(C)(C)C (centres unmarked) [CBK305597],117.853
19,CCn1c(CN2CCOCC2)nnc1SCC(=O)Nc1cc(C)cc(C)c1 [CBK270258],105.413
20,O=C(NC1CC1)[C@H]1C=CCN1C(=O)c1cccs1 [CBK284324],117.007
21,Cc1ccc(-c2ncc3c(=O)[nH]c(=O)n(C)c3n2)cc1 [CBK288553],115.624
22,O=C1CCCN1CC(=O)N1CCCC(c2cc3ccccc3cn2)C1 (centres unmarked) [CBK285091],79.4091
23,CCc1cc(CNC(=O)c2cc(C)nc3c(C)cccc23)on1 [CBK281554],80.0756
24,O=C(CSc1nc(-c2ccco2)cc(C(F)(F)F)n1)NCc1ccco1 [CBK266091],96.9958
25,CSCc1nnc(SCCC(=O)N2CCN(c3ccc(F)cc3)CC2)o1 [CBK240463],130.831
26,NS(=O)(=O)c1cnccc1NCCc1ccccc1 [CBK058003],91.1573

# 19 entries from above, tab-delimited:
row	Structure (SMILES)	% of control remaining [%]
2	O=C(CN1CCCCC1)Nc1ccc(S(=O)(=O)N2CCOCC2)cc1 [CBK265577]	119.33
3	COc1cc(OC)cc(C(=O)OCc2ccc(F)cc2)c1 [CBK267996]	130.013
4	O=C(OCc1ccc(S(=O)(=O)N2CCOCC2)cc1)c1cc(-c2ccccc2)nc2ccccc12 [CBK267411]	118.624
5	CCc1nc2ccccc2n1CC(=O)N(CCC#N)Cc1cccnc1 [CBK304892]	144.171
6	COc1ccc2[nH]c(-c3cncn3CCCC(C)(C)CO)cc2c1 [CBK281778]	93.8146
7	CCc1nccn1CCC(=O)NC1CCN(Cc2ccncc2)CC1 [CBK306813]	106.588
8	CC(=O)N1CCc2c([nH]c3c(C)cccc23)C12CCN(C/C=C\c1ccccc1)C2 (centres unmarked) [CBK040414]	98.5855
9	O=C(CN1CCN(c2ccccn2)CC1)N1c2ccccc2Sc2ccc(C(F)(F)F)cc21 [CBK268835G]	94.2405
10	c1ccc(COC(c2ccccc2)c2nc3ccccc3n2Cc2ccccc2)cc1 (centres unmarked) [CBK267311]	84.6281
11	COc1ccc2c(c1)C1(CC(=O)N(C)C1=O)C(=O)N2C (centres unmarked) [CBK075146]	95.1211
12	COc1ccc(-c2noc([C@@H]3Cc4[nH]cnc4CN3C(=O)CCC(=O)O)n2)cc1 [CBK288967]	104.691
13	COCCNc1nc(-c2ccccc2OC)ccc1C(=O)N1CCN(C)CC1 [CBK105950]	125.22
14	Cc1csc(-c2cn3ccnc3c(N3CCN(c4ccccn4)CC3)n2)c1 [CBK066530]	124.995
15	O=S(=O)(Nc1cc(O[C@@H]2CCNC2)c2occc2c1)c1cc(F)c(Br)cc1F [CBK073943C]	97.3065
16	Nc1nc(SCc2cccc([N+](=O)[O-])c2)n[nH]1 [CBK268688]	97.1193
17	CC(NC(=O)C1CCN(CCOc2ccccc2)CC1)c1ccccc1 (centres unmarked) [CBK148610]	106.588
18	CN(CC1CCCN(C(=O)Nc2cccc(Cl)c2)C1)C(=O)OC(C)(C)C (centres unmarked) [CBK305597]	117.853
19	CCn1c(CN2CCOCC2)nnc1SCC(=O)Nc1cc(C)cc(C)c1 [CBK270258]	105.413
20	O=C(NC1CC1)[C@H]1C=CCN1C(=O)c1cccs1 [CBK284324]	117.007

# The listing continues:

row,Structure (SMILES),% of control remaining [%]
1,CC(C)Cn1c(SCC(=O)Nc2ccc(OC(F)F)cc2)nc(O)cc1=O [CBK296679],135.411
2,CCN(CCC(C)Sc1ccccc1)c1cncc(Oc2ccc(S(C)(=O)=O)cc2)n1 (centres unmarked) [CBK137186T],88.5813
3,O=C(CC1S/C(=N/N=C/c2cn(Cc3ccccc3)c3ccccc23)NC1=O)Nc1ccccc1 (centres unmarked) [CBK264529],100
4,CCOC(=O)CN1C(c2ccccc2O)Nc2ccc(Br)cc2C1c1ccccc1 (centres unmarked) [CBK263130],88.6186
5,O=C(O)COc1ccc(NC(=O)Cc2ccc([N+](=O)[O-])cc2)cc1 [CBK268573],166.492
6,O=C(c1cccnc1)N1CCCC(c2cc3ccccc3cn2)C1 (centres unmarked) [CBK285154],138.499
7,CCNc1cc(-c2ccco2)ncn1 [CBK090879],155.214
8,Cc1cc(C)nc(SCCCn2c(=O)[nH]c3ccccc32)n1 [CBK264485],97.5391
9,O=C(Cc1cn2ccsc2n1)Nc1ccc(N2CCCCC2)cc1 [CBK306185],172.542
10,Cc1cc(=O)c(O)c(CN2CCC(C(=O)O)CC2)o1 [CBK286843],125.223
11,O=S(=O)(NCC(O)Cn1c2ccc(Cl)cc2c2cc(Cl)ccc21)c1ccccc1 (centres unmarked) [CBK262542],108.382
12,Cc1c(C(=O)NCCOc2ccc(-c3ccccc3)cc2)sc2nc[nH]c(=O)c12 [CBK285805],132.627
13,Cc1ccc(C(=O)Nc2c(C(=O)Nc3cccnc3)cnn2-c2ccccc2)cc1 [CBK263056],89.3123
14,COc1cccc(CNc2nccnc2-c2ccccc2F)c1OC [CBK037993],98.0934
15,O=C(Nc1ccc(O)cc1)c1ccc2c(c1)C(=O)N(c1cccc(N3C(=O)c4ccc(C(=O)Nc5ccc(O)cc5)cc4C3=O)n1)C2=O [CBK261334],113.527
16,C[C@@H](c1ccccc1)n1c(=O)[nH]c2ncc(-c3cccc4ccccc34)nc21 [CBK064710],144.521
17,CC(=O)NCCc1nc2cc(NC(=O)c3cccc([N+](=O)[O-])c3)ccc2n1C [CBK268478],115.264
18,COC(=O)c1ccccc1NC(=O)CNC(=O)c1ccc(Cl)cc1Cl [CBK267860],79.3786
19,Cc1c(Cl)ccc2c(C(=O)NCCCn3cc(Br)cn3)cc(-c3ccncc3)nc12 [CBK267731],110.553
20,N#C/C(=C\c1ccc(-c2ccc(C(=O)O)c(O)c2)o1)c1nc2ccccc2[nH]1 [CBK262121],100
21,COC(=O)c1sc(N2CCCC2)c(S(=O)(=O)C(C)C)c1N [CBK009463],100
22,CNc1nc(C(C)(C)C)cs1 [CBK025373],118.365
23,CC(Sc1nc2ccccc2[nH]1)c1nc2ccccc2[nH]1 (centres unmarked) [CBK266502],112.531
24,O=C(COC(=O)c1ccc2c(c1)C(=O)N(c1ccc(Oc3ccccc3)cc1)C2=O)c1ccc(Br)cc1 [CBK261607],97.1741
25,Cc1ccc(C2=CCN(CC(=O)N3CCc4ccccc43)CC2)o1 [CBK283918],136.903
26,C=CCn1c(Cc2csc(NC(=O)c3cc(S(=O)(=O)NC)ccc3C)n2)n[nH]c1=S [CBK297903],127.534

row,Structure (SMILES),% of control remaining [%]
1,CN(C(=O)c1ccccc1N)c1ccccc1 [CBK086716],118.896
2,Cc1c(S(=O)(=O)Nc2ccc(-c3ccc(F)cc3)cc2)cnn1C [CBK281418],72.7118
3,CC(=O)N1CCc2sccc2C1c1ccc(NC(=O)c2cccc(F)c2)cc1 (centres unmarked) [CBK286466],104.538
4,CCN(Cc1ccc(C#N)cc1F)C(=O)NC(C)c1nncn1C (centres unmarked) [CBK305888],108.406
5,O=S(=O)(N1CCCCCC1)N1CCN(S(=O)(=O)N2CCCCCC2)CC1 [CBK269210],164.642
6,Cc1ccc(C(=O)NCC2COc3ccccc3O2)c(N2CCN(C(=O)c3ccco3)CC2)n1 (centres unmarked) [CBK076356],96.5554
7,COc1ccc(C(C)C)cc1-c1cncc(N[C@H](C)c2ccccc2)n1 [CBK065535],97.2638
8,Cn1ncc(Cl)c1C1CCCCCN1C(=O)c1ccco1 (centres unmarked) [CBK284915],81.5162
9,Cc1ccc(Cl)cc1C(=O)N[C@H]1C[C@@H](c2nnc(CO)n2C2CC2)C1 [CBK306746],78.4929
10,O=C(COc1ccc(Cl)cc1Br)NNC(=O)c1ccccc1O [CBK262943],100
11,O=C1OC(c2ccco2)=N/C1=C/Nc1ccc(C(=O)O)cc1 [CBK265195],115.69
12,Cc1cccc(-c2ncc(NC(=O)Cc3ccc(-c4ccccc4)cc3)nc2-c2ccc(N(C)C)cc2)c1 [CBK037567],160.121
13,CCNC(=O)N1CCCC(Cc2ccc(F)cc2F)(C(=O)OCC)C1 (centres unmarked) [CBK306734],143.874
14,C[C@@H](NC(=O)N(Cc1ccc([N+](=O)[O-])cc1)CC(C)(C)N)c1cccc2ccccc12 [CBK004921],54.3382
15,COc1cc(CN2CCCN(C)CC2)c([N+](=O)[O-])cc1OC [CBK261539],118.967
16,COc1ccccc1N1CCN(CCc2n[nH]c(=S)n2-c2ccccc2)CC1 [CBK262212],87.889
17,CC(C)(C)OC(=O)n1cnc(CC#N)c1 [CBK000202],134.513
18,Cc1cnn(CC(=O)NC(Cc2ccsc2)c2nccs2)c1 (centres unmarked) [CBK282825],105.65
19,C[S+]([O-])CCNC(=O)c1cc(-c2ccc(F)cc2)no1 (centres unmarked) [CBK283251],121.069
20,CCOC(=O)c1ccc(-c2ccc(OC)cc2)cc1 [CBK002658],101.103
21,COc1cc(NC(=O)Cn2cnc3c2c(=O)n(C)c(=O)n3C)c(OC)cc1Cl [CBK133231],77.2977
22,CN(C)S(=O)(=O)Nc1ccc(-c2nnn[nH]2)cc1 [CBK156312],160.382
23,CN(C)CCN(C)C(=O)Cc1csc(-c2ccccc2F)n1 [CBK282173],111.315
24,COC(=O)[C@@H]1Cc2ncn(C(C)C)c2CN1S(=O)(=O)c1ccc(C#N)cc1 [CBK288986],119.384
25,CCCC(CCC(=O)Nc1ccccc1Cl)C(=O)O (centres unmarked) [CBK286757],110.234
